The results in this text go back to the supplement of paper PMC10849652.

Amino acid sequences for entries named in this document (tags omitted). A change or cut given only in a name is not applied to a line headed by its entry.
UniProt O00623: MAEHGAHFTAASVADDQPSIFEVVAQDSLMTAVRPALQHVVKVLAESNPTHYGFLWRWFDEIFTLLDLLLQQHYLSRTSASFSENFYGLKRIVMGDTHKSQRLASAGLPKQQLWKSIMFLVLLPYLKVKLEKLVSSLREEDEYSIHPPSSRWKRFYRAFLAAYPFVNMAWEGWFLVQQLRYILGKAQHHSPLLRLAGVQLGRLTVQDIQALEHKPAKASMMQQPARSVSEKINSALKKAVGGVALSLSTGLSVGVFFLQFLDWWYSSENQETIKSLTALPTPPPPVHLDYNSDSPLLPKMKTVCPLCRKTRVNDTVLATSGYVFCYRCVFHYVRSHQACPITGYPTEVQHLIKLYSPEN
UniProt P61457: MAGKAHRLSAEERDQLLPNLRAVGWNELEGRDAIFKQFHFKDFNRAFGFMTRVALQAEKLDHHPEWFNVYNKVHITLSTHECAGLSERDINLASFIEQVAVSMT
UniProt O14737: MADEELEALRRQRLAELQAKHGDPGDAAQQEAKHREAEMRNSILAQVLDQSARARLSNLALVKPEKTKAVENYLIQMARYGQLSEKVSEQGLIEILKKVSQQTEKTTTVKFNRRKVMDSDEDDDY
UniProt Q9BTK6, whole entry, looked up: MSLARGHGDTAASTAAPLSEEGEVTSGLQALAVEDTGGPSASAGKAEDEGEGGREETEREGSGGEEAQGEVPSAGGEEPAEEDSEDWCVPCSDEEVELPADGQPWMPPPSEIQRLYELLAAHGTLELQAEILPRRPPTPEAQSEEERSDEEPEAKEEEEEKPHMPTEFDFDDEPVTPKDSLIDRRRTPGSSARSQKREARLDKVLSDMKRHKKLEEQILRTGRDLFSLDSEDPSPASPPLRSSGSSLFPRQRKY
UniProt Q14690: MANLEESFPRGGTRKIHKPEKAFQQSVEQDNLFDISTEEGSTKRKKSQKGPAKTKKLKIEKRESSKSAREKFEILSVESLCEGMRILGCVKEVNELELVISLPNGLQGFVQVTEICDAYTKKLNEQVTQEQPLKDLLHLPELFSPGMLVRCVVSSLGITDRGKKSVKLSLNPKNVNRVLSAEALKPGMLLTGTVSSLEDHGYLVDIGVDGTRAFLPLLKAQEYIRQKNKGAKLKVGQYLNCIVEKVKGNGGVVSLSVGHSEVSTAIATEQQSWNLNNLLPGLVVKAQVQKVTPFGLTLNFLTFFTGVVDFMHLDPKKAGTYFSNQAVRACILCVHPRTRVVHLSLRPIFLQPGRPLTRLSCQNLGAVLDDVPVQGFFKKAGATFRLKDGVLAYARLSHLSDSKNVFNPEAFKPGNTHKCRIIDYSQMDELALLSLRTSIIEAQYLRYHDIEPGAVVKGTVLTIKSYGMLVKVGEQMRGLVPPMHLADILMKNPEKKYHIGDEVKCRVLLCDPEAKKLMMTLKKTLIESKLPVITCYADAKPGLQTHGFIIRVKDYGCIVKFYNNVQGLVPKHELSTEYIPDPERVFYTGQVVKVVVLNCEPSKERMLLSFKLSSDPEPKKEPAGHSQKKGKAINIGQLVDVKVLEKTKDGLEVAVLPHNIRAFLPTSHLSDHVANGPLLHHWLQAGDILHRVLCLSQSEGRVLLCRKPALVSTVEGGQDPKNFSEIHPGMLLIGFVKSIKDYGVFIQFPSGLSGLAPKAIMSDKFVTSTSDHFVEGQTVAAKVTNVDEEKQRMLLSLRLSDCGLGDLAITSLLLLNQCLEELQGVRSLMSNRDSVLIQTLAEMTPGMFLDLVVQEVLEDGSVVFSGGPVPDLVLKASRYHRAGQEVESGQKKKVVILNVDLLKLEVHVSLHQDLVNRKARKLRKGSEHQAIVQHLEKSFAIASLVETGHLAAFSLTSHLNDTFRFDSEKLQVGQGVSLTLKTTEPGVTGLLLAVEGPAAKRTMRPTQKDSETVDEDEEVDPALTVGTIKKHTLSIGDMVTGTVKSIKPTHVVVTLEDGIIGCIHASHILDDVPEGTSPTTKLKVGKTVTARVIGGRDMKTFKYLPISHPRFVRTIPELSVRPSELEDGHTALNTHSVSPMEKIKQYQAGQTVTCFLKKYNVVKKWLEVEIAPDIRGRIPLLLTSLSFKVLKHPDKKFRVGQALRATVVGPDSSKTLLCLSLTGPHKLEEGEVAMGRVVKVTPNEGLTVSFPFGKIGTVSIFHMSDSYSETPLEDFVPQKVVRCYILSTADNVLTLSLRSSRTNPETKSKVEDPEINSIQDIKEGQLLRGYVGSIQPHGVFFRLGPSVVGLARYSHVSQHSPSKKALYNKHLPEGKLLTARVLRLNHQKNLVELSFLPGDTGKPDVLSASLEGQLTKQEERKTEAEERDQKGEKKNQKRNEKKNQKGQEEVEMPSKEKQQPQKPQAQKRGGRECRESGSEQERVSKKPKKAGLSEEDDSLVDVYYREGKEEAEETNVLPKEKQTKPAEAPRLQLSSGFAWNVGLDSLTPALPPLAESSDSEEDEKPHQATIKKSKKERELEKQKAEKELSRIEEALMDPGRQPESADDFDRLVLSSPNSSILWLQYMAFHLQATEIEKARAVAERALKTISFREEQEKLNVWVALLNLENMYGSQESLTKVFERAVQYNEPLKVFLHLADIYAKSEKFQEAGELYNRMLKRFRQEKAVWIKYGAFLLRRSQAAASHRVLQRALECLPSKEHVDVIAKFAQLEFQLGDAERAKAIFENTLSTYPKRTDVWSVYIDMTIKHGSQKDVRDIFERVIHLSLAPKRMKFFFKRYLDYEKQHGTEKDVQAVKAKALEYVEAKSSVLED
UniProt Q5T2R2: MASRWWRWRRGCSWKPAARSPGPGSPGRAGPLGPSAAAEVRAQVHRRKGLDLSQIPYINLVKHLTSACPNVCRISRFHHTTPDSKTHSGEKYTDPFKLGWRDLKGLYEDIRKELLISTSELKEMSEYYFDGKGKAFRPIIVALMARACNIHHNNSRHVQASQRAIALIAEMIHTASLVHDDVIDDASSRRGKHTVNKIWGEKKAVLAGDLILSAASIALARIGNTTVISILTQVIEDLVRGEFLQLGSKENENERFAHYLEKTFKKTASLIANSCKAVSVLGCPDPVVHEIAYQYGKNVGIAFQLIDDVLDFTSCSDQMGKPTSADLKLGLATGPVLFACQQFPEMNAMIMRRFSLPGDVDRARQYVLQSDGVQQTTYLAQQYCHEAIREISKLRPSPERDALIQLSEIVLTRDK
UniProt Q9BPZ3: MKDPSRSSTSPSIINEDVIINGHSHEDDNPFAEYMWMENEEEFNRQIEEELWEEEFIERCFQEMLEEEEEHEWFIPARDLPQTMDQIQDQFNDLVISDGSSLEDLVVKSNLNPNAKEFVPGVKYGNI
UniProt Q9HBH1: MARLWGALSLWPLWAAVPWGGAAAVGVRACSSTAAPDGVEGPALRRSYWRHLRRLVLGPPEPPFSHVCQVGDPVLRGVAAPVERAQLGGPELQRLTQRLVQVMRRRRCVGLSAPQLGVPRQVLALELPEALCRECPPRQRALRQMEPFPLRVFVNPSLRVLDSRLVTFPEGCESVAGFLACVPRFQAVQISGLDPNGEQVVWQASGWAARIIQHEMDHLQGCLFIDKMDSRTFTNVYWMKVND
UniProt O00330, whole entry, looked up: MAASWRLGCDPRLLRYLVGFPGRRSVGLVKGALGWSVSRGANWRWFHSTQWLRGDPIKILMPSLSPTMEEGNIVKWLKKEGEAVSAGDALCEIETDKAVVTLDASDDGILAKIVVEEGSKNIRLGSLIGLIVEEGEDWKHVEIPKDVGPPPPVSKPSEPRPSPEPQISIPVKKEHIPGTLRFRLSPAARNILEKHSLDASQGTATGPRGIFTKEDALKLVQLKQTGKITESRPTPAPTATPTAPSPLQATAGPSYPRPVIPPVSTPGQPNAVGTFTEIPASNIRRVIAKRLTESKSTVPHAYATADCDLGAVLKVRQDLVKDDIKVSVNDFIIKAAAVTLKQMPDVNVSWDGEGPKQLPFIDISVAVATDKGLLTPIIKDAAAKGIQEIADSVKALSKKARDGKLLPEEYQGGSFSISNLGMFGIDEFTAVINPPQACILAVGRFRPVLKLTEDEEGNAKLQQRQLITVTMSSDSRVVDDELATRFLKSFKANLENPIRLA
UniProt P11177, whole entry, looked up: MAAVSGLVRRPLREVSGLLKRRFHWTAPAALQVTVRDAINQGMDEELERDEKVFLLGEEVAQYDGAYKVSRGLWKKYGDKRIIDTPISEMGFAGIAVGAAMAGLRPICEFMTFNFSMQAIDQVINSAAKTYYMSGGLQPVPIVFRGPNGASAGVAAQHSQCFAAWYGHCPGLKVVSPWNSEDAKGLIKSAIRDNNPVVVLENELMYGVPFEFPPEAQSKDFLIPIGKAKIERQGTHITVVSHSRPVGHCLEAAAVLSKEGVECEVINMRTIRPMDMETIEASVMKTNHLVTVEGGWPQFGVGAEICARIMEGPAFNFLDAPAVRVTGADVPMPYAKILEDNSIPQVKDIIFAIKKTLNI
UniProt Q13177, whole entry, looked up: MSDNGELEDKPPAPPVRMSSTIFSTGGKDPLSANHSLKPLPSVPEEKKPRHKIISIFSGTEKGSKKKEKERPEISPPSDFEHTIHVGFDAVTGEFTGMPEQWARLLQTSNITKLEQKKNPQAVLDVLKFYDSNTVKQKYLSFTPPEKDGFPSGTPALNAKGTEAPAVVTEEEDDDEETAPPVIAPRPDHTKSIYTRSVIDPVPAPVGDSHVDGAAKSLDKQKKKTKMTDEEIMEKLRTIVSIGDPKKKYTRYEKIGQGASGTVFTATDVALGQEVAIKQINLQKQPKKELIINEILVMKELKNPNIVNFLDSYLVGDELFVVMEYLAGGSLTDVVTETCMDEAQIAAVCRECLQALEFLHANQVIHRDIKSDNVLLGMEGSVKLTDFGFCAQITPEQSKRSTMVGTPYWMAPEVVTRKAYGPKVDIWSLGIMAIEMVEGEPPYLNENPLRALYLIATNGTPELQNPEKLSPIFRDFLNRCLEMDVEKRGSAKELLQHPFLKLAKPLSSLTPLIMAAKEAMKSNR
UniProt O75381, whole entry, looked up: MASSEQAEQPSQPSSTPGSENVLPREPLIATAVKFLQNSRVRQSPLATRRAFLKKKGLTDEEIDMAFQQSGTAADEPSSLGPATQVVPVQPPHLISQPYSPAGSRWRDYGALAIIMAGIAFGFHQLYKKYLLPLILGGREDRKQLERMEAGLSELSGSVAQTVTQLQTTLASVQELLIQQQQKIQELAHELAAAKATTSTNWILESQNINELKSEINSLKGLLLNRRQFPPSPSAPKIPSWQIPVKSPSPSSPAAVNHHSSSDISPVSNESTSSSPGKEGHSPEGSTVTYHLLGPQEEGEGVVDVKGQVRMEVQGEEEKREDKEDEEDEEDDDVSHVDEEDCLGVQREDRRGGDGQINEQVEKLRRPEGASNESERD
UniProt Q96RG2: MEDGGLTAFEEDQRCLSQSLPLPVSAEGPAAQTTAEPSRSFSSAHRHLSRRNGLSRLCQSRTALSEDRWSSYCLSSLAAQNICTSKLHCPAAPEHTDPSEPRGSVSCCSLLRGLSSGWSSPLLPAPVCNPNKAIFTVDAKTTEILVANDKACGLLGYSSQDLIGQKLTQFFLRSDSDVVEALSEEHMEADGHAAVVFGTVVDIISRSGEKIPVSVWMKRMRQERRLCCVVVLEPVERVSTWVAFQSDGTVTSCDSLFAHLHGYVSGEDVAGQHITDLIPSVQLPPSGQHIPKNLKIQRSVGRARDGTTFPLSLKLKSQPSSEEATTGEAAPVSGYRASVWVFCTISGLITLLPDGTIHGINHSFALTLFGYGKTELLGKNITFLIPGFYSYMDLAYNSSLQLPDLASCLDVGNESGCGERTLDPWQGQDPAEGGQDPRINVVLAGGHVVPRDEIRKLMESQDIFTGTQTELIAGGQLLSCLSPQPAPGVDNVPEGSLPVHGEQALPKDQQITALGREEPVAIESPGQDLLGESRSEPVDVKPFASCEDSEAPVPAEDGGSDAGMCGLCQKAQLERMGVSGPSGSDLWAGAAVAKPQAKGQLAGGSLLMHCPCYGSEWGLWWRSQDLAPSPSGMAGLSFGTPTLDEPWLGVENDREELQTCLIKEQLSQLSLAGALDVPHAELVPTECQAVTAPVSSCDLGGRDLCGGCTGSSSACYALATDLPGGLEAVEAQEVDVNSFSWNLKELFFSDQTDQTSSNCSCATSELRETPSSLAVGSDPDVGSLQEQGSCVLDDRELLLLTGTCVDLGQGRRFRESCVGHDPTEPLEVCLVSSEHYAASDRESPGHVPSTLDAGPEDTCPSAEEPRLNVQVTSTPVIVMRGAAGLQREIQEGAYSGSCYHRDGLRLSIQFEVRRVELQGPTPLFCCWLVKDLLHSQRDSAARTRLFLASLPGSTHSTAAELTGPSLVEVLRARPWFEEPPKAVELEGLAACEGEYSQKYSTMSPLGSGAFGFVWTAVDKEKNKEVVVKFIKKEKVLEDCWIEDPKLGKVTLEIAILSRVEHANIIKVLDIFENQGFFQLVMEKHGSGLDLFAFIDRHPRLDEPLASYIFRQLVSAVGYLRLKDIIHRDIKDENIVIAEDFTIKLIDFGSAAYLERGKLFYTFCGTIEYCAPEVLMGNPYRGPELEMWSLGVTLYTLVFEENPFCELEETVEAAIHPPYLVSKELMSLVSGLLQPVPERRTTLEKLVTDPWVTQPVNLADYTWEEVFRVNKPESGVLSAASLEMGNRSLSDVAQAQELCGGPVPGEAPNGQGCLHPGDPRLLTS

The other results are listed elsewhere or left out.

Compound in one test: C1COCCN1CCN2C3=CC=CC=C3N=C2NC(=O)C4=CC(=CC=C4)[N+](=O)[O-] [IRAK-1-4 Inhibitor I]
In words: log2 fold change, soluble protein after heating vs DMSO (PISA); higher = thermal stabilisation; K562 cells, 10 uM, 30 min; active = over 0.2 and 3.5 SD of the protein, either way, in both replicates (recomputed). Summed up:
(§1)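 Soluble protein was quantified by TMTpro 16plex LC-MS/MS after channel sums were equalised. It was obtained as the supernatant after 21,000xg for 90 min from pooled aliquots of K562 cells (2×10^6 cells/mL, 10 μM compound, 30 min) heated for 3 min across 48°C-58°C and extracted in PBS with 0.5% NP-40 at 4°C. Thermal stability values are relative to control samples and come from duplicates. They are given as log2 fold changes.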
For PAFAH1B1 (UniProt P43034), the log2 fold change is inactive: 0.007.

Consider PDZD8 (UniProt Q8NEN9), for which the log2 fold change was inactive: 0.013.

For the target PEX12 (UniProt O00623), the log2 fold change was inactive: 0.049.

For PCBD1 (UniProt P61457), the log2 fold change is inactive: 0.043.

With PDIA5 (UniProt Q14554), the log2 fold change was inactive: -0.038.

For PDXK (UniProt O00764), the log2 fold change is inactive: 0.

PBLD (UniProt P30039): the log2 fold change was inactive: 0.

With PEX1 (UniProt O43933), the log2 fold change was inactive: -0.031.

For PANK2 (UniProt Q9BZ23), the log2 fold change was inactive: 0.017.

Compound in a further test: C=CC(=O)N1CCC[C@@H](n2nc(-c3ccc(Oc4ccccc4)cc3)c3c(N)ncnc32)C1 [ibrutinib]
The test is described as above. Summed up: as §1
In the case of PCYOX1 (UniProt Q9UHG3), the log2 fold change is inactive: 0.066.

Turning to PDCL (UniProt Q13371), the log2 fold change was inactive: -0.009.

For the target PDCD5 (UniProt O14737), the log2 fold change is inactive: 0.001.

For the target PAGR1 (UniProt Q9BTK6), the log2 fold change is inactive: -0.067.

As for PDCD11 (UniProt Q14690), the log2 fold change was inactive: -0.074.

Consider PDSS1 (UniProt Q5T2R2), for which the log2 fold change was inactive: -0.001.

In the case of PAK3 isoform 3 (UniProt O75914), the log2 fold change was inactive: 0.023.

For the target PAIP2 (UniProt Q9BPZ3), the log2 fold change is inactive: 0.012.

For the target PDF (UniProt Q9HBH1), the log2 fold change was inactive: -0.024.

For the target PANX1 (UniProt Q96RD7), the log2 fold change is inactive: 0.002.

Consider PDHX (UniProt O00330), for which the log2 fold change is inactive: -0.05.

As to PDHB (UniProt P11177), the log2 fold change was inactive: -0.051.

Take PAK2 (UniProt Q13177): the log2 fold change is inactive: 0.021.

Turning to PEX14 (UniProt O75381), the log2 fold change is inactive: -0.027.

Consider PASK (UniProt Q96RG2), for which the log2 fold change is inactive: -0.033.
